Measurements as given in patent CN112028997A.
Results are given in words; binding and its absence hold for the method and conditions named. Some results given as binding are weak or reduced against the parent protein; the word gives no strength.

The chains behind the UniProt entries cited, without tags or fusion partners. Residues count along the entry.
UniProt P06731, residues 35-685: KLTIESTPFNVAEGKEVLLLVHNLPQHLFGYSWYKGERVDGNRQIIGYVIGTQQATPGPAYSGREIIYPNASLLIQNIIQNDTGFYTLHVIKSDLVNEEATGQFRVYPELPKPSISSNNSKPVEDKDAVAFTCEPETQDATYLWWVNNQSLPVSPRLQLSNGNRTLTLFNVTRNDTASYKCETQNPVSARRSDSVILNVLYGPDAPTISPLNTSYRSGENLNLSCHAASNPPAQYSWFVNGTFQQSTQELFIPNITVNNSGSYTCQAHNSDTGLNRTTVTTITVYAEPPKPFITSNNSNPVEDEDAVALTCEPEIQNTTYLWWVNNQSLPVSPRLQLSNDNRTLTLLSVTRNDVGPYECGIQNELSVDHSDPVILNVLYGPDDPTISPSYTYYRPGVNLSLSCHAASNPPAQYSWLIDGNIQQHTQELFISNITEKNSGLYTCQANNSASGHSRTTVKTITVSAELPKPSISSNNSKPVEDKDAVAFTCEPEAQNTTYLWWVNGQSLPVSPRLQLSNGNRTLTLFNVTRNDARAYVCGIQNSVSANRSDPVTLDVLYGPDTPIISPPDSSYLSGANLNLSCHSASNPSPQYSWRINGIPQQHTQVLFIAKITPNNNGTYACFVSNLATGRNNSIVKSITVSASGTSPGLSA

Target: 重组CEACAM5蛋白 (UniProt P06731)
Assay: phage display panning and monoclonal phage ELISA on coated recombinant CEACAM5

| Binder | binding |
| --- | --- |
| CEACAM5纳米抗体 A94 (VHH) VHH: EVQVVESGGGLVQPGGSLRLSCTASGRSFSSYTYGMGWFRQAPGEEREFVAGISTSGGTAAYATSVKGRFTISRDNAKNTVYLQMNSLKPEDTGVYYCAATSMTWYGNNRASEYAYWGQGTQVTVSS | binds |
| CEACAM5纳米抗体 B7 (VHH) VHH: EVQLVESGGGLVPAGGSLRLSCAASISIFSIDAMGWFRQAPGKQRELVAAITTVGSANYADSVKGRFTISRDNAKNTVYLQMNSLKPEDTAVYYCNAVWGHWDWGQGTQVTVSS | binds |
| CEACAM5纳米抗体 B41 (VHH) VHH: QLQLVESGGGLVQAGGSLRLSCAASGSLFRINAMAWFRQAPGKQRELVAAITSAGSTNYADFVKGRFTISADNAKNTLYLQMNSLKPEDTAVYYCNTPWPVGRDYWGQGTQVTVSS | binds |
| CEACAM5纳米抗体 B47 (VHH) VHH: EVQLVESGGGLVQAGGSLRLSCKASGSIDMTDFMAWYRQAPGKEREIVAVIRPDGSPDYLQSVKGRFTISTDNAKRSLYLQMNSLKPEDTAVYLCNYVLQYKNYWGQGTQVTVSS | binds |
| CEACAM5纳米抗体 B80 (VHH) VHH: QVQLVESGGGLVQPGGSLRLSCAASGFSLDYYAIGWFRQAPGKEREGVSCITSSGSTNYADSVKGRFTISRDNAKNTVYLQMNSLKPEDTAVYYCGTCFEGLGPEQVNDYWGQGTQVTVSS | binds |
| CEACAM5纳米抗体 B95 (VHH) VHH: EVQVVESGGGLVQAGGSLKLSCAASFDTFSIHAMGWYRQVPGKQRELVAAITSSGGTNYADSVKGRFTISRDNAKNTVYLQMNSLKPGDTAVYYCNEPFRLFDWGQGTQVTVSS | binds |
